Measured values published in the supplement of paper PMC10849652.
The other results are listed elsewhere or left out.

The chains behind the UniProt entries cited, without tags or fusion partners. Where a name states a change or a piece, a line headed by the entry shows the natural chain unless it says otherwise.
UniProt P07358, whole entry, looked up: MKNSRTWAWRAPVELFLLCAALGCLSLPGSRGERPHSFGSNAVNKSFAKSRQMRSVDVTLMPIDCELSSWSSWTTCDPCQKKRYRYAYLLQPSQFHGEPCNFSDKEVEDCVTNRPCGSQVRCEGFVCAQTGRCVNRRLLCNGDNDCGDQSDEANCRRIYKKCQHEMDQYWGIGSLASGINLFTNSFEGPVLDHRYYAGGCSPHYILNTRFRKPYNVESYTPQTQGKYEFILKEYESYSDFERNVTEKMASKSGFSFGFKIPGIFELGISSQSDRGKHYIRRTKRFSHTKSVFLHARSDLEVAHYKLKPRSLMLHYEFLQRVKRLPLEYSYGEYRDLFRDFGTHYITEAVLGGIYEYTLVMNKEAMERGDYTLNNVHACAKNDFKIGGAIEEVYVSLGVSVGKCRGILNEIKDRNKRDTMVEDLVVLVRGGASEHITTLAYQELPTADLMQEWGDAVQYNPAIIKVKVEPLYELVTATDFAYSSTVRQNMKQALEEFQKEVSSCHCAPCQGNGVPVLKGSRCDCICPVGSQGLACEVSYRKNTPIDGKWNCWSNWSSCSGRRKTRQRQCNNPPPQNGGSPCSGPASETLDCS
UniProt Q9Y2G2: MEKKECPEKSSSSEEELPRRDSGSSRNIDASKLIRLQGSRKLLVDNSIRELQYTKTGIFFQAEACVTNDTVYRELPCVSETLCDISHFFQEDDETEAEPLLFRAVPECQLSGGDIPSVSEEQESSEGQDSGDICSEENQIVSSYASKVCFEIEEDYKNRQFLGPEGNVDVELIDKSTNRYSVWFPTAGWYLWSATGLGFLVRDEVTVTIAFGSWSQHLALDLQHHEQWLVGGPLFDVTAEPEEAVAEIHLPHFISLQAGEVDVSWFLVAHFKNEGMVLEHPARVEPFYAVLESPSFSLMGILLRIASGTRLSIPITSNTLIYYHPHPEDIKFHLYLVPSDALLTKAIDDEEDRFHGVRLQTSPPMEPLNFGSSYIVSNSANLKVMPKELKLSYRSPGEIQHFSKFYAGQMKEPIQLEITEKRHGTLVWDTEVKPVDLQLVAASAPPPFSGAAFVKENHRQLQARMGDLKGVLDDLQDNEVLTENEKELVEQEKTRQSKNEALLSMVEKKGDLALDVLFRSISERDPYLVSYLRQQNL
UniProt Q3KRA6: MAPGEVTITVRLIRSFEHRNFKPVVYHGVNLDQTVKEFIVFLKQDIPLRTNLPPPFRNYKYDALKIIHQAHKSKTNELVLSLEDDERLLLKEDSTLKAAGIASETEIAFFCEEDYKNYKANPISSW
UniProt Q96N11, whole entry, looked up: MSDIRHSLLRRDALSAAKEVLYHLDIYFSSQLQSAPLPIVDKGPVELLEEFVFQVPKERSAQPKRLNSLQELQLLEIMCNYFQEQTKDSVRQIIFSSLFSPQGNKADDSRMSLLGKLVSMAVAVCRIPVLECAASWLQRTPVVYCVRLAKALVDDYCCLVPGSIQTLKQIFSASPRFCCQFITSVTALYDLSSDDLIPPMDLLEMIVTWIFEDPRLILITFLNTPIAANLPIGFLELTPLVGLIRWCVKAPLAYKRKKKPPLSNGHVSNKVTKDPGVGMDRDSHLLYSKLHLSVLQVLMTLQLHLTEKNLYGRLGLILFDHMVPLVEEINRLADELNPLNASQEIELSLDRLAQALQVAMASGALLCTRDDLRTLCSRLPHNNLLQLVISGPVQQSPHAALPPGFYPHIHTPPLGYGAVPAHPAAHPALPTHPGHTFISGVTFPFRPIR
UniProt Q5SQH8: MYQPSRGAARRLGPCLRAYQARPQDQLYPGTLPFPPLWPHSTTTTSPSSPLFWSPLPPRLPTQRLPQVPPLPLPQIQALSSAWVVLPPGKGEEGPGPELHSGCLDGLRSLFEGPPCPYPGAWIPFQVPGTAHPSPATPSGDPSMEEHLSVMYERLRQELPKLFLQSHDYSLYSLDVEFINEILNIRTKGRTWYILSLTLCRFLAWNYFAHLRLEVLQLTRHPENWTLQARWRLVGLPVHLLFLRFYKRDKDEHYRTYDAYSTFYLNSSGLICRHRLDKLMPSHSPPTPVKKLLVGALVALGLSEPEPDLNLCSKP
UniProt P04003: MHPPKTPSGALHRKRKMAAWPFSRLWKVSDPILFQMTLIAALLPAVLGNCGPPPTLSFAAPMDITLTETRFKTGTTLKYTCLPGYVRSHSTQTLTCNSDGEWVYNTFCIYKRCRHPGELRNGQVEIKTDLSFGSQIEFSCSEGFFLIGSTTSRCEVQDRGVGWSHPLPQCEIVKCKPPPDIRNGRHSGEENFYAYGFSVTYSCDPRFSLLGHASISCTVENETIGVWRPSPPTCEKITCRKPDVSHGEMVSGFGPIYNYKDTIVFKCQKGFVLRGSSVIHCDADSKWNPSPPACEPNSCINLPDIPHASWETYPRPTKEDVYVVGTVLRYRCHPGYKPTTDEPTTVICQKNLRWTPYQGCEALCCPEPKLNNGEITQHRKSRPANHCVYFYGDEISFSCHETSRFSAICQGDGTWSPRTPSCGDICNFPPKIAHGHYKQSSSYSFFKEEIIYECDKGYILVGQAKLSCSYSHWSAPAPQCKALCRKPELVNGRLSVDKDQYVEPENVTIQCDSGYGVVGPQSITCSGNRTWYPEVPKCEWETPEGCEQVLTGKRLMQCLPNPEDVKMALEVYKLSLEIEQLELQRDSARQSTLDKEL
UniProt Q9H741: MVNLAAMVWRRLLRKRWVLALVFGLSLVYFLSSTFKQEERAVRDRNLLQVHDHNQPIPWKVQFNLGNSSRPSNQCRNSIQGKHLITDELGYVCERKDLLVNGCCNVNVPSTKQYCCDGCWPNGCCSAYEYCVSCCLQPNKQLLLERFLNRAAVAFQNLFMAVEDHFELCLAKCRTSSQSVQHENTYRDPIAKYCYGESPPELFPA
UniProt Q9BWL3: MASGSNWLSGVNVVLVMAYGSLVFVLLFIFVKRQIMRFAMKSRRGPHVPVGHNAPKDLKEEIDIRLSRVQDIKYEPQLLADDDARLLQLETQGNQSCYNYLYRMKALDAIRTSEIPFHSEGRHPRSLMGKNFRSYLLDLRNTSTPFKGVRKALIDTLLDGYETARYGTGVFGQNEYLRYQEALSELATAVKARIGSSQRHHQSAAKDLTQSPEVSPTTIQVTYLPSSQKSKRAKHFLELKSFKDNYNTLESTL
UniProt Q9Y6J0: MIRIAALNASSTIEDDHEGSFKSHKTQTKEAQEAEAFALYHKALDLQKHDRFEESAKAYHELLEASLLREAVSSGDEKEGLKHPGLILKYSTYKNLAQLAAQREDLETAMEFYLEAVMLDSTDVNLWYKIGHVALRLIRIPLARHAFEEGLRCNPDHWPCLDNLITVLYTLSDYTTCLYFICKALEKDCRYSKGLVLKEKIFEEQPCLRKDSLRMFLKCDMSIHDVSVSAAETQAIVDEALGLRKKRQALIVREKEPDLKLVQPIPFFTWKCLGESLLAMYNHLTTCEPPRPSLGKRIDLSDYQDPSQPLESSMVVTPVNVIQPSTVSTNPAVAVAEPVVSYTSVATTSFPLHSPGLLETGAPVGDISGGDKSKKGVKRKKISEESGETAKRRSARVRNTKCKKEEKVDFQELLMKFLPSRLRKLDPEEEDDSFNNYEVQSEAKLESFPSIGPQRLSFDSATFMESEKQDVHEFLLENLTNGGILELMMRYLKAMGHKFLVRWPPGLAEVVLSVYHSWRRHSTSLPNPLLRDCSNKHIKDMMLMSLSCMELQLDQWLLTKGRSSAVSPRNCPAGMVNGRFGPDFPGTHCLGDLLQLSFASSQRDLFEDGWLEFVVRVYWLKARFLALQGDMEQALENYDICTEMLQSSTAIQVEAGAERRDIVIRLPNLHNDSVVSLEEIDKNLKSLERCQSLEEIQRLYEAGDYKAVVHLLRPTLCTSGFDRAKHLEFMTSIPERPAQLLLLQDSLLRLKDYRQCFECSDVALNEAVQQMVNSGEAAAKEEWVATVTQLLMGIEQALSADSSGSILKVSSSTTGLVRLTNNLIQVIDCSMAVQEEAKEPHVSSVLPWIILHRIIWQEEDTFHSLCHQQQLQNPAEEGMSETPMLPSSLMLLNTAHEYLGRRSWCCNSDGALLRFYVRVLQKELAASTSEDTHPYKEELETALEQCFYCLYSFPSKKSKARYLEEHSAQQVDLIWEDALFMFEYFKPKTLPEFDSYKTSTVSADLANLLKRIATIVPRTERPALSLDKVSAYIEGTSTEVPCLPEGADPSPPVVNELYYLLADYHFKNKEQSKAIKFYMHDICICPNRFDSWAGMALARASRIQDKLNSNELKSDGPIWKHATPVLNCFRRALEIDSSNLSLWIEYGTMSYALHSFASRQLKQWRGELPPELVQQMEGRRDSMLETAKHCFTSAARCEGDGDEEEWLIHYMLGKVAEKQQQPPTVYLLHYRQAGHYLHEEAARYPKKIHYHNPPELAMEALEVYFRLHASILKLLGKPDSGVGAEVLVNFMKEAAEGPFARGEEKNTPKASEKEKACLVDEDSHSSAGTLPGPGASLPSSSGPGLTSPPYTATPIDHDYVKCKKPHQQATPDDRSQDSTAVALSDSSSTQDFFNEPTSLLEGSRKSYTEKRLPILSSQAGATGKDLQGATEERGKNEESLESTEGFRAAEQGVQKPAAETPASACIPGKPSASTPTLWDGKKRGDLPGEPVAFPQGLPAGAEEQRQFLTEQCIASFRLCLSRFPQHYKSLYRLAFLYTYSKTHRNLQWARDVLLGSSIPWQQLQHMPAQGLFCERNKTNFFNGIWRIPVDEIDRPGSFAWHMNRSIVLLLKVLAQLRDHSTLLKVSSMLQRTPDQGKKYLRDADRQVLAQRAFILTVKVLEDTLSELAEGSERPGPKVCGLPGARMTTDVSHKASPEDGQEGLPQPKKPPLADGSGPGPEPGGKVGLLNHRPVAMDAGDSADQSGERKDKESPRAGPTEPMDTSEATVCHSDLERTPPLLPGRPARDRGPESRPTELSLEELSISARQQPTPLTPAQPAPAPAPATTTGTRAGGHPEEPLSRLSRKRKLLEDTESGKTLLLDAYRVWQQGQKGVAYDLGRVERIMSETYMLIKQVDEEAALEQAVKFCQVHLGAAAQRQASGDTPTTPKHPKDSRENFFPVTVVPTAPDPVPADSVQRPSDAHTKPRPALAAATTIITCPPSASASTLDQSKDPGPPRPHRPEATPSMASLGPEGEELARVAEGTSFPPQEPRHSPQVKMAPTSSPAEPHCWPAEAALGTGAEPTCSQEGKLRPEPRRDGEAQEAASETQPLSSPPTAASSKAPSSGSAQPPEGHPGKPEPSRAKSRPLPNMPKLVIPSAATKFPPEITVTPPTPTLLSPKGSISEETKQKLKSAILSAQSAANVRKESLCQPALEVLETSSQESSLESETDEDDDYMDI
UniProt Q9H257: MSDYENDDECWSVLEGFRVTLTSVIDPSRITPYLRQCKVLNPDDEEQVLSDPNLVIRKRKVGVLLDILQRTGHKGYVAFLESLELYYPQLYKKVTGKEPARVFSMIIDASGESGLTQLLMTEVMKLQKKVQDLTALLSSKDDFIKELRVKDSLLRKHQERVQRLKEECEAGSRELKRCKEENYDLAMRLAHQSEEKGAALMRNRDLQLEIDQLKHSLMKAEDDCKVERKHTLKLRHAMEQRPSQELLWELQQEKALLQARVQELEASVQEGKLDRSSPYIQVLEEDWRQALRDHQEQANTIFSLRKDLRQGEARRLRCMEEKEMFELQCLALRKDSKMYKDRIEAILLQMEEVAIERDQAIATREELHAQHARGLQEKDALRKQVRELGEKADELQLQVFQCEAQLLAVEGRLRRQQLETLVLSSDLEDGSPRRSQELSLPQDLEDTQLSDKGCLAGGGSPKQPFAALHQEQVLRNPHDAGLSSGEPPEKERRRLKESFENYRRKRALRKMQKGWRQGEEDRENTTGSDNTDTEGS
UniProt Q504U0: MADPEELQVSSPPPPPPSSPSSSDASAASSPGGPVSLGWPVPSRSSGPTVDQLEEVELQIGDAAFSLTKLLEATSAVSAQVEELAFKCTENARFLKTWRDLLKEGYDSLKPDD
UniProt Q32NC0: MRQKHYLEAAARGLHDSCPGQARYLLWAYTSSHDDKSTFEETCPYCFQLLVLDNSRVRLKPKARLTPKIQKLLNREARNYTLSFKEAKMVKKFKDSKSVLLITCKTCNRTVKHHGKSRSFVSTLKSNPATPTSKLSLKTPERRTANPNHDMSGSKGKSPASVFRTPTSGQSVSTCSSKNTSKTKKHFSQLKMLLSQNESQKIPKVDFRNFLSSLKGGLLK
UniProt Q96GV9: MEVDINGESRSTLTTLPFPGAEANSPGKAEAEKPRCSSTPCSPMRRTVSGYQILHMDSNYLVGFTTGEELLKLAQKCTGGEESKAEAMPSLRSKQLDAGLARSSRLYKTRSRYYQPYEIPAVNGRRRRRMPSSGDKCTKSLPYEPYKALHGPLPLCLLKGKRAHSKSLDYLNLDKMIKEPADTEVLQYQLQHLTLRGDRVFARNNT
UniProt Q96NL8: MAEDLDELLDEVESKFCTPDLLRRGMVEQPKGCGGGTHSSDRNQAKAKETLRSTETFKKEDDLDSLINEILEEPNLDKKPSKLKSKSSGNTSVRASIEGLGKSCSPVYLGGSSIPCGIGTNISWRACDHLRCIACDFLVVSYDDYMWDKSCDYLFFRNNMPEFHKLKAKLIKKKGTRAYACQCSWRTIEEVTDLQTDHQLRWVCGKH

How the values were obtained:
Experiment in all cases: log2 fold change, soluble protein after heating vs DMSO (PISA); higher = thermal stabilisation; K562 cells, 10 uM, 30 min; active = over 0.2 and 3.5 SD of the protein, either way, in both replicates (recomputed)
saracatinib = compound: CN1CCN(CCOc2cc(OC3CCOCC3)c3c(Nc4c(Cl)ccc5c4OCO5)ncnc3c2)CC1 [saracatinib]
Outline: (§1)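 K562 cells at 2×10^6 cells/mL were exposed to 10 μM compound for 30 min, then aliquots were heated for 3 min across 48°C-58°C, pooled, and extracted in PBS containing 0.5% NP-40 at 4°C. The supernatant after 21,000xg for 90 min was taken as soluble protein and measured by TMTpro 16plex LC-MS/MS with channel sums equalised. Thermal stability is reported relative to control samples, with values from duplicates. Fold changes are given on a log2 scale.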

[1] = compound: CNc1nc(-c2ccc3c(N)n[nH]c3c2)cc(N2C[C@@H](C(=O)NC3CCCCC3)CC[C@H]2C)n1
Outline: as §1

sotrastaurin = compound: CN1CCN(c2nc(C3=C(c4c[nH]c5ccccc45)C(=O)NC3=O)c3ccccc3n2)CC1 [sotrastaurin]
Outline: as §1

Tubastatin A = compound: CN1CCc2c(c3ccccc3n2Cc2ccc(C(=O)NO)cc2)C1 [Tubastatin A]
Outline: as §1

[2] = compound: CNC(=O)C1=CC=CC=C1NC2=NC(=NC=C2Cl)NC3=C(C=C(C=C3)N4CCOCC4)OC
Outline: as §1

defactinib = compound: CNC(=O)c1ccc(Nc2ncc(C(F)(F)F)c(NCc3nccnc3N(C)S(C)(=O)=O)n2)cc1 [defactinib]
Outline: as §1

rucaparib = compound: CNCc1ccc(-c2[nH]c3cc(F)cc4c3c2CCNC4=O)cc1 [rucaparib]
Outline: as §1

encorafenib = compound: COC(=O)N[C@@H](C)CNc1nccc(-c2cn(C(C)C)nc2-c2cc(Cl)cc(NS(C)(=O)=O)c2F)n1 [encorafenib]
Outline: as §1

[3] = compound: COC(=O)[C@H](CCSC)NC(=O)C1=C(C=C(C=C1)NC[C@H](CS)N)C2=CC=CC=C2
Outline: as §1

filanesib = compound: CON(C)C(=O)N1N=C(c2cc(F)ccc2F)S[C@@]1(CCCN)c1ccccc1 [filanesib]
Outline: as §1

zotarolimus = compound: CO[C@H]1C[C@@H]2CC[C@@H](C)[C@@](O)(O2)C(=O)C(=O)N2CCCC[C@H]2C(=O)O[C@H]([C@H](C)C[C@@H]2CC[C@H](n3cnnn3)[C@H](OC)C2)CC(=O)[C@H](C)/C=C(\C)[C@@H](O)[C@@H](OC)C(=O)[C@H](C)C[C@H](C)/C=C/C=C/C=C/1C [zotarolimus]
Outline: as §1

idasanutlin = compound: COc1cc(C(=O)O)ccc1NC(=O)[C@@H]1N[C@@H](CC(C)(C)C)[C@](C#N)(c2ccc(Cl)cc2F)[C@H]1c1cccc(Cl)c1F [idasanutlin]
Outline: as §1

alisertib = compound: COc1cc(Nc2ncc3c(n2)-c2ccc(Cl)cc2C(c2c(F)cccc2OC)=NC3)ccc1C(=O)O [alisertib]
Outline: as §1

[4] = compound: COc1cc2nc(-c3cc(F)ccc3O)nc(N[C@@H]3CNC[C@H]3C(C)(C)O)c2cc1OC
Outline: as §1

gefitinib = compound: COc1cc2ncnc(Nc3ccc(F)c(Cl)c3)c2cc1OCCCN1CCOCC1 [gefitinib]
Outline: as §1

[5] = compound: COc1cccc2cc(-c3nc([C@H]4CC[C@H](C(=O)O)CC4)n4ncnc(N)c34)[nH]c12
Outline: as §1

lapatinib = compound: CS(=O)(=O)CCNCc1ccc(-c2ccc3ncnc(Nc4ccc(OCc5cccc(F)c5)c(Cl)c4)c3c2)o1 [lapatinib]
Outline: as §1

pictilisib = compound: CS(=O)(=O)N1CCN(Cc2cc3nc(-c4cccc5[nH]ncc45)nc(N4CCOCC4)c3s2)CC1 [pictilisib]
Outline: as §1

[6] = compound: COC1=CC=C(C=C1)CN2C=CC3=C2C=C(C=C3)C(=O)NO
Outline: as §1

alvocidib = compound: CN1CC[C@H](c2c(O)cc(O)c3c(=O)cc(-c4ccccc4Cl)oc23)[C@H](O)C1 [alvocidib]
Outline: as §1

Measured: log2 fold change

C8B (UniProt P07358)
inactive: saracatinib 0.258 | [1] -0.014

BTBD6 (UniProt Q96KE9)
inactive: saracatinib -0.031 | sotrastaurin 0.021 | Tubastatin A 0.211 | [2] -0.141 | defactinib -0.131 | rucaparib 0.327 | [1] 0.082 | encorafenib -0.101 | [3] -0.009 | filanesib -0.019 | zotarolimus 0.062 | idasanutlin 0.053 | alisertib -0.058 | [4] 0.194 | gefitinib 0.03 | [5] -0.186 | lapatinib -0.072 | pictilisib 0.143

CARD8 isoform 5 (UniProt Q9Y2G2)
inactive: saracatinib -0.035 | sotrastaurin 0.023 | Tubastatin A 0 | [2] -0.027 | defactinib -0.192 | rucaparib -0.099 | [1] 0.01 | encorafenib -0.137 | [3] 0.02 | [6] -0.102 | filanesib 0.083 | idasanutlin 0.006 | alisertib -0.038 | [4] 0.145 | gefitinib -0.256 | [5] -0.121 | lapatinib -0.547 | pictilisib -0.038

C9orf72 (UniProt Q96LT7)
inactive: saracatinib 0.071 | sotrastaurin 0.129 | Tubastatin A -0.126 | [2] -0.071 | defactinib -0.056 | [1] -0.021 | [3] 0 | [6] -0.06 | filanesib -0.054 | zotarolimus -0.115 | idasanutlin -0.026 | alisertib 0.062 | [4] -0.013 | gefitinib -0.034 | [5] -0.062 | lapatinib 0.062 | pictilisib -0.015

C1orf159 isoform 4 (UniProt Q96HA4)
inactive: sotrastaurin 0.113 | alvocidib -0.287 | defactinib -0.008 | [3] 0.057 | filanesib -0.025 | zotarolimus 0.217 | pictilisib -0.008

C2orf76 (UniProt Q3KRA6)
inactive: saracatinib -0.012 | sotrastaurin -0.263 | Tubastatin A 0.093 | [2] 0.069 | defactinib 0.044 | rucaparib 0.137 | [1] 0.049 | encorafenib 0.066 | [3] -0.263 | filanesib -0.059 | idasanutlin -0.144 | alisertib 0.068 | [5] -0.168

C5orf24 (UniProt Q7Z6I8)
inactive: saracatinib 0.206 | Tubastatin A -0.086 | defactinib 0.046 | [1] -0.127 | [3] 0.084 | alisertib -0.115 | [4] -0.128 | gefitinib -0.338 | [5] -0.014 | lapatinib 0.112 | pictilisib -0.064

C7orf26 (UniProt Q96N11)
inactive: sotrastaurin -0.111 | [2] 0.042 | defactinib -0.189 | [3] -0.031 | [6] -0.003 | filanesib -0.018 | gefitinib -0.063

C11orf74 (UniProt Q86VG3)
inactive: sotrastaurin -0.071 | Tubastatin A 0.036 | [2] 0.137 | defactinib -0.162 | rucaparib -0.01 | encorafenib 0.046 | [3] 0.027 | [6] -0.04 | filanesib 0.149 | alisertib -0.042 | gefitinib 0.024 | [5] 0.101 | pictilisib -0.082

C6orf136 isoform 4 (UniProt Q5SQH8)
inactive: saracatinib 0.087 | sotrastaurin -0.072 | Tubastatin A -0.153 | [2] -0.112 | rucaparib 0.01 | [1] -0.3 | encorafenib -0.1 | [6] 0.048 | filanesib -0.292 | idasanutlin -0.03 | alisertib -0.38 | gefitinib 0.01 | [5] -0.037

C18orf32 (UniProt Q8TCD1)
inactive: sotrastaurin 0.087 | alvocidib 0.041 | Tubastatin A 0.005 | [2] 0.002 | defactinib -0.022 | rucaparib -0.015 | encorafenib -0.055 | [3] 0.065 | filanesib -0.009 | zotarolimus 0.015 | idasanutlin -0.107 | alisertib -0.041 | [4] -0.042 | gefitinib -0.029 | [5] 0.055 | lapatinib -0.12 | pictilisib 0.015

C9 (UniProt P02748)
inactive: saracatinib 0.066 | alvocidib 0.133 | Tubastatin A 0.063 | [1] -0.008 | zotarolimus -0.279 | alisertib -0.16 | [5] 0.201

C4BPA (UniProt P04003)
inactive: sotrastaurin 0.028 | alvocidib -0.446 | Tubastatin A -0.06 | [2] 0.424 | rucaparib -0.187 | encorafenib -0.208 | [6] 0.184 | filanesib 0.425 | zotarolimus 0.017 | idasanutlin -0.518 | alisertib -0.197 | gefitinib 0.278 | [5] 0.094 | pictilisib 0.647

CAB39L (UniProt Q9H9S4)
inactive: saracatinib 0.043 | sotrastaurin -0.213 | Tubastatin A 0.056 | [2] 0.049 | defactinib -0.09 | rucaparib 0.003 | [1] 0.015 | encorafenib -0.144 | [3] 0.043 | [6] -0.063 | filanesib -0.07 | idasanutlin -0.052 | [4] 0.07 | lapatinib 0.057 | pictilisib 0.029

C6orf120 (UniProt Q7Z4R8)
inactive: saracatinib -0.097 | sotrastaurin 0.008 | Tubastatin A 0.041 | [2] -0.145 | defactinib 0.024 | rucaparib 0.127 | [1] 0.041 | encorafenib 0.074 | [3] -0.045 | [6] 0.003 | filanesib -0.053 | [4] -0.135 | gefitinib -0.008 | lapatinib -0.114

Three neighbouring records already listed, for reference:
C8B (UniProt P07358)
inactive: saracatinib 0.258 | [1] -0.014

BTBD6 (UniProt Q96KE9)
inactive: saracatinib -0.031 | sotrastaurin 0.021 | Tubastatin A 0.211 | [2] -0.141 | defactinib -0.131 | rucaparib 0.327 | [1] 0.082 | encorafenib -0.101 | [3] -0.009 | filanesib -0.019 | zotarolimus 0.062 | idasanutlin 0.053 | alisertib -0.058 | [4] 0.194 | gefitinib 0.03 | [5] -0.186 | lapatinib -0.072 | pictilisib 0.143

CARD8 isoform 5 (UniProt Q9Y2G2)
inactive: saracatinib -0.035 | sotrastaurin 0.023 | Tubastatin A 0 | [2] -0.027 | defactinib -0.192 | rucaparib -0.099 | [1] 0.01 | encorafenib -0.137 | [3] 0.02 | [6] -0.102 | filanesib 0.083 | idasanutlin 0.006 | alisertib -0.038 | [4] 0.145 | gefitinib -0.256 | [5] -0.121 | lapatinib -0.547 | pictilisib -0.038

The list continues.

C12orf49 (UniProt Q9H741)
inactive: pictilisib -0.012

C1orf43 (UniProt Q9BWL3)
inactive: sotrastaurin -0.041 | filanesib -0.005

C12orf10 (UniProt Q9HB07)
inactive: pictilisib -0.121

CAMKK1 isoform 2 (UniProt Q8N5S9)
inactive: [4] 0.035 | lapatinib -0.02 | pictilisib -0.067

C8orf88 (UniProt P0DMB2)
inactive: alvocidib -0.202 | [2] -0.096 | defactinib -0.002 | [3] 0.091 | [6] -0.098 | zotarolimus -0.734 | idasanutlin 0.082 | alisertib -0.016 | [4] -0.113 | [5] 0.077 | lapatinib -0.282 | pictilisib -0.039

CABIN1 (UniProt Q9Y6J0)
inactive: [2] -0.006 | alisertib 0.01 | [5] 0.154

CAPNS1 (UniProt U3KPR7)
inactive: [2] -0.116 | idasanutlin 0.086

C6orf62 (UniProt Q9GZU0)
inactive: [2] 0.017 | pictilisib 0.031

C5orf34 (UniProt Q96MH7)
inactive: alisertib -0.109 | [5] -0.078

CARD9 (UniProt Q9H257)
inactive: [2] 0.388 | [6] -0.062 | idasanutlin 0.169

CAMK1 (UniProt Q14012)
inactive: rucaparib 0.017 | encorafenib -0.129

C12orf60 (UniProt Q5U649)
inactive: Tubastatin A -0.101 | [2] 0.06 | [4] 0.191 | lapatinib 0.085

C3AR1 (UniProt Q16581)
inactive: gefitinib 0.109

CABLES2 (UniProt Q9BTV7)
inactive: [6] 0.068 | alisertib -0.232 | [5] 0.036

C4orf46 (UniProt Q504U0)
inactive: gefitinib 0.012

C18orf21 (UniProt Q32NC0)
inactive: alisertib -0.019 | [5] -0.243

CAPNS2 (UniProt Q96L46)
inactive: rucaparib -0.234 | encorafenib -0.221 | [6] -0.007 | alisertib 1.12 | [5] -0.3

C16orf87 (UniProt Q6PH81)
inactive: sotrastaurin 0.043 | defactinib -0.069 | rucaparib 0.055 | encorafenib 0.027 | [3] 0.062 | filanesib 0.145 | alisertib 0.13 | gefitinib -0.112 | [5] 0.061

CA3 (UniProt P07451)
inactive: sotrastaurin 0.015 | filanesib 0.014

C19orf12 (UniProt Q9NSK7)
inactive: Tubastatin A -0.141 | rucaparib -0.081 | encorafenib 0.078 | idasanutlin 0.087 | alisertib -0.084 | [4] -0.216 | gefitinib 0.038 | [5] 0.074 | lapatinib 0.219

C11orf24 (UniProt Q96F05)
inactive: sotrastaurin -0.027 | [2] -0.376 | [6] 0.116 | filanesib 0.183 | idasanutlin 0.374

CAP1 isoform 2 (UniProt Q01518)
inactive: [6] 0.156 | alisertib -0.155 | [5] -0.076

C11orf96 (UniProt Q7Z7L8)
inactive: alvocidib -0.013 | defactinib 0.044 | [3] -0.213 | [6] 0.26 | zotarolimus -0.25 | [4] 0.009 | lapatinib 0.036 | pictilisib 0.028

C17orf99 (UniProt Q6UX52)
inactive: [2] 0.035 | idasanutlin 0.417 | alisertib 0.359 | [5] -0.097 | pictilisib 0.108

C3orf86 (UniProt P0DN24)
inactive: alisertib 0.143 | gefitinib -0.078 | [5] -0.177

CAPN15 (UniProt O75808)
inactive: sotrastaurin -0.025 | [2] 0.069 | filanesib -0.041 | [4] 0.295 | lapatinib 0.244 | pictilisib -0.158

BSN (UniProt Q9UPA5)
inactive: alvocidib -0.089 | defactinib -0.01 | [3] 0.061 | zotarolimus -0.101 | idasanutlin -0.014

C5orf30 (UniProt Q96GV9)
inactive: Tubastatin A 0.502 | idasanutlin 0.022 | [4] -0.094 | lapatinib -0.21

C16orf70 (UniProt Q9BSU1)
inactive: sotrastaurin 0.037 | rucaparib -0.056 | encorafenib 0.051 | [6] -0.149 | filanesib -0.351 | idasanutlin 0.226 | [4] -0.01 | lapatinib 0.13

CARD6 (UniProt Q9BX69)
inactive: rucaparib 0.007 | encorafenib 0.07

C8orf37 (UniProt Q96NL8)
inactive: Tubastatin A 0.005 | [2] 0.039

CAPN1 (UniProt E9PLX0)
inactive: sotrastaurin 0 | [2] 0.394 | rucaparib 0.013 | encorafenib -0.167 | [6] 0.124 | filanesib 0.259

CALR3 (UniProt Q96L12)
inactive: [6] 0.02

CAD (UniProt H7BZB3)
inactive: idasanutlin -0.006
